# At least one compound was matched to its structure with a doubt left.
# Tested on: M17D-TR/αS-3K::YFP cells
# Test: α-Syn inclusion-forming neuroblastoma cell experiment (Incucyte)
# Assay type: cell-based
# Settings: M17D αS-3K::YFP cells, 5 and 10 μM, t=96 hours
# Method: FIG. 11. Compound 1 prevents αS inclusion formation. M17D cells expressing the inclusion-prone αS-3K::YFP fusion protein (dox-inducible) were treated with 0.1% DMSO (vehicle; “0 μM”) as well as 1.25, 2.5, 5 and 10 μM of compounds 1, 2 and 8 at t=24 hours after plating. Cells were induced with doxycycline at t=48 hours. A) Incucyte-based analysis of punctate YFP signals relative to 0.1% DMSO was done at t=96 hours (N=3 independent experiments, n=6-18 individual wells total (0 μM, n=18; 10 μM, n=6; all other concentrations, n=12). B) Same as panel A, but confluence fold changes relative to DMSO vehicle (0 μM) were plotted. C) Representative IncuCyte images of reporter cells treated with vehicle vs. 10 μM compounds 1, 2, or 8 (t=96 h), green channel. Arrows indicate αS-rich YFP-positive inclusions. Scale bar, 50 μm. All data are presented as fold-changes relative to DMSO control +/−standard deviation. One-way ANOVA, Dunnett's post-hoc test; *, p<0.05; **, p<0.01; ***, p<0.001.
# Chemical and peptide source. […] General Characterizations. ^1H and ^13C {1H} NMR spectra were recorded using a 500 MHz Bruker instrument working at a frequency of 500 MHz for ^1H and at 126 MHz for ^13C. […] Thioflavin fluorescence assays. Thioflavin fluorescence assays were used to monitor fibril formation of commercial recombinant α-syn at a final concentration of 2 μM and treated with control DMSO and different compounds. […]
smiles,measurement,value
"O=C(Nc1ccc(NC(=O)Nc2cccc3[nH]ccc23)cc1)Nc1cccc2[nH]ccc12 [Compound 1, 3-(1H-indol-4-yl)-1-(4-{[(1H-indol-4-yl)carbamoyl]amino}phenyl)urea]",α-syn inclusion formation (punctate YFP signals relative to DMSO),reduced α-syn inclusion formation

# Source: patent US20250241890A1, “1,4-DIUREAS AND 1,4-DITHIOUREAS AND USES THEREOF” (Purdue Research Foundation, priority 2024, published 2025)
